The experiment has as its target T1, UBA6 in cell lysates (co-immunoprecipitation with the UBL domain) (UniProt A0AVT1).
T1 sequence: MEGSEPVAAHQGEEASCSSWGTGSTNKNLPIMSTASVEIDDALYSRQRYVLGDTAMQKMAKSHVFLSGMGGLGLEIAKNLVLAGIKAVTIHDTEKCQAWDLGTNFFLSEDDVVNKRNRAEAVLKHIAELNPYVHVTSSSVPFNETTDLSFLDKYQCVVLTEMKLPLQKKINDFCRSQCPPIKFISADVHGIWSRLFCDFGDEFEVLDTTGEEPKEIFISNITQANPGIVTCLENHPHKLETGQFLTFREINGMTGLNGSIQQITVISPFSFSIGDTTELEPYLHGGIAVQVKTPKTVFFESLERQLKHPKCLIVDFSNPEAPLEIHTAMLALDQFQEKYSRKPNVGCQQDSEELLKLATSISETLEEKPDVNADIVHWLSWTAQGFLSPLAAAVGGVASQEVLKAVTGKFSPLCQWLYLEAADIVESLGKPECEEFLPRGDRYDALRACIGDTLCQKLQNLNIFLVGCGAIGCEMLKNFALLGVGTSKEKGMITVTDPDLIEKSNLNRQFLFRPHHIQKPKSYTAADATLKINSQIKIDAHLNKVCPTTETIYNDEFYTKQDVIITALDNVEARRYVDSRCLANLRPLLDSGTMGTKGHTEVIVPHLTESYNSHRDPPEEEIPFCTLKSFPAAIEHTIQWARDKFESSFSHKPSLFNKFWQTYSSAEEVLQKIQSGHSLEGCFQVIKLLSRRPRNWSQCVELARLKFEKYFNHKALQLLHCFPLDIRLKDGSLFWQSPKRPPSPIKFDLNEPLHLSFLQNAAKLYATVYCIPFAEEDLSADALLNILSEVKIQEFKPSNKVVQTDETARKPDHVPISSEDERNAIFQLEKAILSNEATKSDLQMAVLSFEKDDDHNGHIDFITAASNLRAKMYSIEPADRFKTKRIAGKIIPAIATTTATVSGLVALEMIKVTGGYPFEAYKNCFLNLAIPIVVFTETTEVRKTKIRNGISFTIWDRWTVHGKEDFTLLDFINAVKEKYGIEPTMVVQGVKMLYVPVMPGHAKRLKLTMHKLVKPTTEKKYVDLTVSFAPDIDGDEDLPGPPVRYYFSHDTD
In words: co-IP; transfected UBL domain of BIRC6 and UBA6 from cell lysates.

Results on one molecule are retold here after publication PMC10827748.

No constants are given. Whether binding was seen depends on the method and setting. Binding seen in cells or lysates may run through a third protein. Some results given as binding are weak or reduced against the parent protein; the word gives no strength.

B1: UBL domain of BIRC6, transfected (domain or fragment, UniProt O88738 3842-4092)
chain: DEKVTMFLQSPCPLYKGRINATSHVIQHPMFGAGHKFRTLHLPVSTTLSDVLDRVSDTPSITAKLISEQKDDKEKKNHEEKEKVKAENGFQDNYSVVVASGLKSQSKRAMASTPPRPPSRRGRTIPDKIGSASSSADAASKIITVPVFHLFHRLLAGQPLPAEMTLAQLLTLLYDRKLPQGYRSIDLTVKLGSKVITDPSLSKTDSFKRLHPEKDHGDLVGSCPEDEALTPSDECMDGVLDESLLETCPIQ
Turning to B1, the binding result is given as “binds”.
